These results are taken from US20220009920A1 (GB005, Inc., priority 2020, published 2022).

Amino acid sequences for entries named in this document (tags omitted).
UniProt Q06187, whole entry: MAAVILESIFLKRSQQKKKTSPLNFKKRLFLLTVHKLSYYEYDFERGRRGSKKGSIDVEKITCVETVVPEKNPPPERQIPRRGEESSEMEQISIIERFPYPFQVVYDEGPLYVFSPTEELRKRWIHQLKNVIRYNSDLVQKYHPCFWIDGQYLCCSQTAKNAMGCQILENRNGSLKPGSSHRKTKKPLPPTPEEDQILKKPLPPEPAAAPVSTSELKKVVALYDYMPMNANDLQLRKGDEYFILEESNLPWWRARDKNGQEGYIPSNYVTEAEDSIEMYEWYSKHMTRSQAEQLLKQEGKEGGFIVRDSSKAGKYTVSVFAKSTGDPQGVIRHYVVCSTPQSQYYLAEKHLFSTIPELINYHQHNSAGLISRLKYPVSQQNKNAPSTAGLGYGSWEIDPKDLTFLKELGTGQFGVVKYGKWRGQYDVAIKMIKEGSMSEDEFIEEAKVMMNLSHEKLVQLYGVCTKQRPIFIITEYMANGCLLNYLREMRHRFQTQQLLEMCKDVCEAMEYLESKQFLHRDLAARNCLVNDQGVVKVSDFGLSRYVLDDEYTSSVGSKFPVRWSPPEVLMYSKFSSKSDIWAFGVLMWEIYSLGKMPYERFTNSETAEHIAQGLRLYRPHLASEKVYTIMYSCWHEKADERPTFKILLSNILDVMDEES

The structures given here were assigned with low confidence; some may be wrong.

In one experiment the target is BTK (Homo sapiens, UniProt Q06187). Briefly: Assay to determine activity against BTK. The note with it: read-out: BTK IC50; 1 mM ATP, 2 nM BTK, 90 minutes at room temperature. The protocol: Solutions of compounds (test or control) in DMSO were prepared at the desired concentrations, and serially diluted to 11 concentrations by 3-fold dilution in 384pp-plate using TECAN EVO200. 20 nL of stock were transferred to 384 plate using Echo550. DMSO was used as vehicle control.
Two separate solutions were prepared—an ATP solution containing MgCl2 (10 mM), Brij-35 (0.01%), DTT (2 mM), BSA (0.05%), EGTA (1 mM), HEPE (pH7.5) (50 mM), FLPeptide (6 uM) and ATP (4 mM); and a BTK solution containing MgCl2 (10 mM), Brij-35 (0.01%), DTT (2 mM), BSA (0.05%), EGTA (1 mM), HEPE (pH7.5) (50 mM) and BTK (2.67 nM). (BTK was obtained from Cama; FLPeptide2 was obtained from PerkinElmer and Ibrutinib was obtained from Selleck.) 5 μL of ATP solution were added to each well, followed by addition of 15 μL of BTK solution to initiate the reaction. (Note the final volume of each well was 20 μL containing MgCl2 (10 mM), Brij-35 (0.01%), DTT (2 mM), BSA (0.05%), EGTA (1 mM), HEPE (pH7.5) (50 mM), FLPeptide (1.5 uM), ATP (1 mM) and BTK (2 nM).
The plates were incubated at room temperature for 90 minutes and then stopping buffer added (75 μL, containing 0.5 M EDTA) to terminate the reaction. Samples from each well were analyzed using EZ reader. The % remaining activity was calculated using read conversion ratio (CR) according to the equation: […]

Another experiment concerns BTK in RAMOS B cells. In words: Assay to determine BTK activity in RAMOS B cells (anti-IgM, FLIPR Calcium 6). As to conditions: read-out: Ramos IC50, anti-IgM EC80, calcium readout. The protocol: On the day before assay, Ramos B cells were plated in plating medium (RPMI1640 medium containing 1% FBS and 1× pencillin-streptomycin). On the day of the assay, 2× dye solution was prepared following the manual of the FLIRP Calcium 6 Assay Kit: Dilute the dye with assay buffer (20 mM HEPES in IX HBSS, pH7.4); Add probenecid to the final concentration of 5 mM; vortex vigorously for 1-2 minutes. Cells were collected by centrifuging, and the pellet was re-suspended in plating medium. After counting, cells were re-suspended at a density of 3×10^6/ml in plating medium. Equal volume of 2× dye solution was added to the cell suspension. Cells were then plated at 20 μl/well into a 384-well poly-D-lysine coated plate. Plate was centrifuged at 1000 rpm for 3 minutes and then incubated at 37° C. for 2 hours followed by an additional 15-minute incubation at 25° C. Compounds were prepared at 3× concentration in dilution buffer (20 mM HEPES and 0.1% BSA in 1×HBSS, pH 7.4). Serially diluted compound was transferred from source plate to a 384-well compound plate by using an Echo 550 (Labcyte). 20 μl/well compound dilution buffer was added to the compound plate and mixed on plate shaker for 2 mins. 4× EC80 of Anti-IgM (Jackson ImmunoResearch) was prepared in dilution buffer and 20 μl/well was added to a new 384-well compound plate. […] Plates were read for 160 sec with 1 sec interval.

`CC#CC(=O)N[C@H]1CCC=C(c2c(F)cc(C(N)=O)c3[nH]c4c(c23)CCCCC4)C1`: the IC50 is 10 to 100 nM on BTK and > 100 nM in the experiment with BTK in RAMOS B cells.

For orientation: IC50 means the concentration that inhibits the measured activity by half.
